Measured values as given in PMC3910004.
For at least one entry, the source does not settle the construct or the ends of the probe. Where cells or extracts were used, other partners may take part. No signal at the amounts used counts as a negative.

Target: T1, human interleukin-6 receptor (hIL-6R) (Homo sapiens) (UniProt P08887)
T1 sequence: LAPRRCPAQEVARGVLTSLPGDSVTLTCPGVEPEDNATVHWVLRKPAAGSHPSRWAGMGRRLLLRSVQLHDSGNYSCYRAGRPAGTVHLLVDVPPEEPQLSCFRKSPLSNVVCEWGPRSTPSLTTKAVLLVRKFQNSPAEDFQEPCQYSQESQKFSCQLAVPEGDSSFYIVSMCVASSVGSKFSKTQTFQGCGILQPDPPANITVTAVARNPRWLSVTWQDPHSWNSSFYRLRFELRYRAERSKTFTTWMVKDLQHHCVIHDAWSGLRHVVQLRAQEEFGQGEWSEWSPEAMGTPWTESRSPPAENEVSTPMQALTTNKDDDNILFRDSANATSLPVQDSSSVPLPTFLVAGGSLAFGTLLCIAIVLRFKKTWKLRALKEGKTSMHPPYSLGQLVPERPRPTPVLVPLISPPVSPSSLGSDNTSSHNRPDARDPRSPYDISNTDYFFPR
Assay: flow cytometry (ce6 fluorescence)
Conditions: 50 nM conjugate, Cell binding by flow cytometry, 45 min, serum-free medium, 37 °C (stated for the uptake in cytotoxicity assays), protein on the cell surface, label: chlorin e6

Does “GGAGGGUUGGGGUGGCGGA [shuffled-AIR-3A-ce6]” bind (cells nonfluorescing, 3' C6 amino linker coupled to chlorin e6 (EDC/NHS))?
Result: no binding

Does GGGGAGGCUGUGGUGAGGG [AIR-3A-ce6] bind (hIL-6R-lacking cells only slight nonspecific binding, 3' C6H12NH2 amino linker coupled to chlorin e6 (EDC/NHS))?
Result: binds
